The source of these data is article PMC8750186.

Chains of the proteins cited; added tags and fusions are not shown. Residues count along the entry.
UniProt P08603, residues 19-1231: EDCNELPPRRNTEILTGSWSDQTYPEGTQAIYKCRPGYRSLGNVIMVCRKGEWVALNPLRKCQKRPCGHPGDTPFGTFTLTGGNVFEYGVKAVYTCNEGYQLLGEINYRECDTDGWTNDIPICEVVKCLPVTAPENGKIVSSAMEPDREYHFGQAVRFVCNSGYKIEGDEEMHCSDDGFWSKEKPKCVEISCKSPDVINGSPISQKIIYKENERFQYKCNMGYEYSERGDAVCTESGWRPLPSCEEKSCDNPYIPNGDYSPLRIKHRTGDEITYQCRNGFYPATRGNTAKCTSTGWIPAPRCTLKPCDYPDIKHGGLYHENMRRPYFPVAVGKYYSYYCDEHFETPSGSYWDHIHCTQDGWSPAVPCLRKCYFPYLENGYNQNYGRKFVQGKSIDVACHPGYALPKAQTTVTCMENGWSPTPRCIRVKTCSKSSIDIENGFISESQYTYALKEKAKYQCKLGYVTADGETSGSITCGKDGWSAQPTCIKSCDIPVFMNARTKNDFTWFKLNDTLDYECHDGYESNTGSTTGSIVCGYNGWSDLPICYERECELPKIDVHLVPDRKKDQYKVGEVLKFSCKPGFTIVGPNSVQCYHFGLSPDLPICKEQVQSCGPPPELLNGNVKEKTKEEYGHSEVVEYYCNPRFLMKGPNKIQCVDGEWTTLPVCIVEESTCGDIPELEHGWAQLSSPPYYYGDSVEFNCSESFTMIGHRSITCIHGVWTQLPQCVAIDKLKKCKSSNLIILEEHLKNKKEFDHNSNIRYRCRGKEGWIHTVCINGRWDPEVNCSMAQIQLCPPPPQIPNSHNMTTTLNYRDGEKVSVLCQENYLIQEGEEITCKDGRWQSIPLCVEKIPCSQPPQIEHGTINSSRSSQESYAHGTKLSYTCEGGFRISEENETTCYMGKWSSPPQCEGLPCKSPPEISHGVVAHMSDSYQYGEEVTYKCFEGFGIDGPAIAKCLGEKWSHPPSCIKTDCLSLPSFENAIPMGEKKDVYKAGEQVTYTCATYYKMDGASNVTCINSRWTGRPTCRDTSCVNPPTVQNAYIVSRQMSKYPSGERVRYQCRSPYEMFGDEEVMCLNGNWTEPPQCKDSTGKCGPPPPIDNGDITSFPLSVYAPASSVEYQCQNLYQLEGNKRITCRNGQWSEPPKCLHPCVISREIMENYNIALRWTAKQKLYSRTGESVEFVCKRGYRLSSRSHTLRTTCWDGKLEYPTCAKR
UniProt P16220: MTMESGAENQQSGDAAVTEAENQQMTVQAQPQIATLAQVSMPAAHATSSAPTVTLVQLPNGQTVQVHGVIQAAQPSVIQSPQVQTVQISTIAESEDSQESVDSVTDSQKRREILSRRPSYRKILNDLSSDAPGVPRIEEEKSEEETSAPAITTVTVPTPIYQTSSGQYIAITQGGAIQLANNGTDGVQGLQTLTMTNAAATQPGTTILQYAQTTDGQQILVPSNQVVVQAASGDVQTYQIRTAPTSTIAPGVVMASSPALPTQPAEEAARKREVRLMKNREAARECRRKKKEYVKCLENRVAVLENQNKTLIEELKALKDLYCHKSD

This experiment has as its target complement factor H (FH) (human (endogenous in hTERT-RPE1)) (UniProt P08603). In words: co-IP; Western blot for CREB1 on eluates of FH-IPs and IgG control IPs from hTERT-RPE1 lysates. On the technique in general: In western blotting, separated proteins are transferred to a membrane and probed.

No constants are given. Whether binding was seen depends on the method and setting. Binding seen in cells or lysates may run through a third protein. Some entries that bind do so weakly or less than the wild type.

With CREB1 (from UniProt P16220 1-327), the binding entry was “binds”.
